# Earlier results as cited in patent publication US20220096389A1, “PHARMACEUTICAL COMPOSITIONS OF AMORPHOUS SOLID DISPERSIONS AND METHODS OF PREPARATION THEREOF” (Shenzhen Pharmacin Co., Ltd., priority 2020, published 2022).
# Conditions: cited from earlier work
compound,measurement,setting,value
CCn1cc(C(=O)O)c(=O)c2cc(F)c(N3CCN(C)CC3)cc21 [Pefloxacin],Measured or Calculated pKas (first value),first value in cell,6.21 ± 0.12
same,Measured or Calculated pKas (second value),second value in cell,7.87 ± 0.10
